The test concerns the target Wild type AVR6 (chicken) (UniProt P56735). The test can be described thus: SEC; gel filtration of wild type AVR6, data not shown; oligomers of tetramers via disulphide bridges.

These are yes or no findings as the source states them, for the method shown. Some binding calls cover weakened binding; strength is not graded here.

B1: Wild type AVR6 (protein, UniProt P56735 25-150)
chain: ARKCSLTGEWDNNLGSIMTIGAVNDNGEFNGTYITAVADNPGNIKLSPLLGIQHKRACQPTFGFTVHWNFSESTSVFVGQCFVDRSGKEVLKTKWLQRLAVDDISDDWKATRVGYNNFTRQRTVEE
In the case of B1, the binding entry is reported as “binds”.

Values taken from article PMC1282572, “Avidin related protein 2 shows unique structural and functional features among the avidin protein family” (BMC Biotechnology, 2005).
